Laboratory results taken from patent publication US20170095537A1.
Results are given in words; binding and its absence hold for the method and conditions named. Some binding calls cover weakened binding; strength is not graded here.

The chains behind the UniProt entries cited, without tags or fusion partners. Where a name states a change or a piece, a line headed by the entry shows the natural chain unless it says otherwise.
UniProt P07204: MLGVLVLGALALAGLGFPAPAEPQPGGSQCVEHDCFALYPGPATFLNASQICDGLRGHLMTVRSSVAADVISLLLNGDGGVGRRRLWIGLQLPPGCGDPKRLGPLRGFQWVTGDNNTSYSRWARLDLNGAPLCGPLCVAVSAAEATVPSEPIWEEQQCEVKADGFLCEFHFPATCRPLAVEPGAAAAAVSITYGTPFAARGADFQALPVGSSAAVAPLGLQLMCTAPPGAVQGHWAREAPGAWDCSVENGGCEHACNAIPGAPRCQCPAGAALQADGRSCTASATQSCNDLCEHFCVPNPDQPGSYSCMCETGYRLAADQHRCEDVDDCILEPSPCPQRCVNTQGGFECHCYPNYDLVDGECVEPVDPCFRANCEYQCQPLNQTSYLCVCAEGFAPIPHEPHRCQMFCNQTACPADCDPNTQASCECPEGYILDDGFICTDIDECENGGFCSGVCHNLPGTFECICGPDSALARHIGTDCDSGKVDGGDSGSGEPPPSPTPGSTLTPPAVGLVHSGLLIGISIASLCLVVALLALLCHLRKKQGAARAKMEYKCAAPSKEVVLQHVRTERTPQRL

How the values were obtained:
[1] = target: T1, recombinant CD14 (R&D Systems) (Homo sapiens) (UniProt P08571); assay: solid phase binding assay: rCD14 mixed with the TM protein, captured on anti-human CD14 antibody, detected with anti-c-Myc antibody
T1 sequence: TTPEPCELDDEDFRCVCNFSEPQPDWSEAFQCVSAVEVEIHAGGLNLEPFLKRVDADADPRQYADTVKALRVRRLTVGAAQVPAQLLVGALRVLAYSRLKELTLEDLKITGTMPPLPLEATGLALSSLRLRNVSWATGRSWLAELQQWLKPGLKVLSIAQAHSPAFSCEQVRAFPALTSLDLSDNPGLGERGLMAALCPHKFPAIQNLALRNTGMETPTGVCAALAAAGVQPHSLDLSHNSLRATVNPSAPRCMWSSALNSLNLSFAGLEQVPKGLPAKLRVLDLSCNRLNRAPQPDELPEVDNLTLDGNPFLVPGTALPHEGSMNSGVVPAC

[2] = target: T1, recombinant CD14 (R&D Systems) (Homo sapiens); assay: FIG. 2A solid phase binding assay with prTMD23
[3] = target: T1, recombinant CD14 (R&D Systems) (Homo sapiens); assay: solid phase binding assay: rCD14 (100 nM) pre-incubated with prTMD23, captured on immobilized mouse anti-human CD14 antibody, detected with biotinylated anti-c-Myc antibody and streptavidin-HRP/TMB
[4] = target: T1, recombinant CD14 (R&D Systems) (Homo sapiens); assay: summary of the filing's binding experiments; assay not given
[5] = target: T1, recombinant CD14 (R&D Systems) (Homo sapiens); assay: solid phase binding assay: rCD14 (100 nM) pre-incubated with prTMD23 I442A, captured on immobilized mouse anti-human CD14 antibody, detected with biotinylated anti-c-Myc antibody and streptavidin-HRP/TMB
[6] = target: T1, recombinant CD14 (R&D Systems) (Homo sapiens); assay: FIG. 2B SPR with mrTMD23 (per methods)
[7] = target: recombinant mammalian-expressed rTMD23 (recombinant human thrombomodulin domain 2 plus domain 3, Ala242-Ser515) (Homo sapiens) (UniProt P07204); assay: surface plasmon resonance (BIAcore 3000), mrTMD23 immobilized on NTA sensor chip, rCD14 passed over in HBS-P buffer

Molecule: Pichia-expressed rTMD23 (recombinant human thrombomodulin domain 2 plus domain 3, Ala242-Ser515) (from UniProt P07204 242-515)
- binding [1]: binds
- binding [2]: binds
- binding [3]: binds
- binding [4]: binds

Molecule: Pichia-expressed recombinant TMD23^1442A (mutant rTMD23 that cannot activate protein C) (from UniProt P07204 242-515)
- binding [1]: binds
- binding [5]: binds

Molecule: recombinant mammalian-expressed rTMD23 (recombinant human thrombomodulin domain 2 plus domain 3, Ala242-Ser515) (from UniProt P07204 242-515)
- binding [6]: binds
- binding [4]: binds

B1: recombinant CD14 (R&D Systems) (receptor)
chain: TTPEPCELDDEDFRCVCNFSEPQPDWSEAFQCVSAVEVEIHAGGLNLEPFLKRVDADADPRQYADTVKALRVRRLTVGAAQVPAQLLVGALRVLAYSRLKELTLEDLKITGTMPPLPLEATGLALSSLRLRNVSWATGRSWLAELQQWLKPGLKVLSIAQAHSPAFSCEQVRAFPALTSLDLSDNPGLGERGLMAALCPHKFPAIQNLALRNTGMETPTGVCAALAAAGVQPHSLDLSHNSLRATVNPSAPRCMWSSALNSLNLSFAGLEQVPKGLPAKLRVLDLSCNRLNRAPQPDELPEVDNLTLDGNPFLVPGTALPHEGSMNSGVVPAC
- binding [7]: binds
